Test results published in paper PMC3531425, “Low Resolution Solution Structure of HAMLET and the Importance of Its Alpha-Domains in Tumoricidal Activity” (PLoS ONE, 2012).
Results are given in words; binding and its absence hold for the method and conditions named.

Molecular target: T1, HAMLET (Human Alpha-lactalbumin Made LEthal to Tumor cells) (human), P00709
T1 chain: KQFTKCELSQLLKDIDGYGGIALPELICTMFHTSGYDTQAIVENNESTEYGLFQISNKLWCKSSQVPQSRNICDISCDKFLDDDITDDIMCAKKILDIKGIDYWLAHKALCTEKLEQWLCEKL
Assay: SAXS; HAMLET at 2.5 and 6.5 mg/ml in phosphate-buffered saline, 15 °C; molecular mass from forward scattering compared with a BSA reference solution; both purified
Details: remark: other sources report otherwise

B1: HAMLET (Human Alpha-lactalbumin Made LEthal to Tumor cells), P00709 20-142 (protein)
chain: T1 chain
  binding: no binding (tested: 2.5 and 6.5 mg/ml)
